Our source for the step yield and isolated yield values is US20240158446A1 (CHUGAI SEIYAKU KABUSHIKI KAISHA, priority 2021, published 2024).

Strings that start with PEPTIDE1 are HELM notation: dots part the residues, brackets hold end groups and non-standard residues.

The nature of the first series: general procedure: Fmoc solid-phase peptide synthesis; 2-chlorotrityl (CTC) resin. Conditions: late stage modification step.
“(2S,8S,12R,14S,20S,23S,27S,30S,36S,38Z)-20-cyclopentyl-2-[(4-cyclopropylphenyl)methyl]-12-ethoxy-27-isobutyl-8-[2-[3-methoxy-4-(trifluoromethyl)phenyl]ethyl]-N,N,3′,3′,4,19,22,26,32,35-decamethyl-30-[(1S)-1-methylpropyl]-3,6,9,15,18,21,25,28,31,34,42-undecaoxo-spiro[1,4,7,10,16,19,22,26,29,32,35-undecazatricyclo[34.5.1.0^10,14]dotetracont-38-ene-17,1′-cyclobutane]-23-carboxamide” had a step yield of 3.7%.

Consider “(2S,8S,13S,14S,20S,23S,27S,30S,36S,38Z)-20-cyclopentyl-13-(2,2-difluoroethoxy)-8-[2-[3,5-difluoro-4-(trifluoromethyl)phenyl]ethyl]-27-isobutyl-N,N,4,19,22,26,32,35-octamethyl-30-[(1S)-1-methylpropyl]-3,6,9,15,18,21,25,28,31,34,42-undecaoxo-2-[[4-(trifluoromethyl)phenyl]methyl]spiro[1,4,7,10,16,19,22,26,29,32,35-undecazatricyclo[34.5.1.0^10,14]dotetracont-38-ene-17,1′-cyclobutane]-23-carboxamide”, for which the step yield amounted to 53%. Still for that read-out and setting: then “(2S,8S,12R,14S,20S,23S,27S,30S,36S,38Z)-20-cyclopentyl-12-ethoxy-2-[(4-ethylphenyl)methyl]-27-isobutyl-8-[2-[3-methoxy-4-(trifluoromethyl)phenyl]ethyl]-N,N,3′,3′,4,19,22,26,32,35-decamethyl-30-[(1S)-1-methylpropyl]-3,6,9,15,18,21,25,28,31,34,42-undecaoxo-spiro[1,4,7,10,16,19,22,26,29,32,35-undecazatricyclo[34.5.1.0^10,14]dotetracont-38-ene-17,1′-cyclobutane]-23-carboxamide”, with 3.3%; and “(2S,8S,13S,14S,20S,23S,27S,30S,36S,38Z)-20-cyclopentyl-27-(cyclopropylmethyl)-13-(2,2-difluoroethoxy)-8-[2-[3,5-difluoro-4-(trifluoromethyl)phenyl]ethyl]-N,N,4,19,22,26,32,35-octamethyl-30-[(1S)-1-methylpropyl]-3,6,9,15,18,21,25,28,31,34,42-undecaoxo-2-[[4-(trifluoromethyl)phenyl]methyl]spiro[1,4,7,10,16,19,22,26,29,32,35-undecazatricyclo[34.5.1.0^10,14]dotetracont-38-ene-17,1′-cyclobutane]-23-carboxamide”, with 54%.

Still in this series, the particulars now being: whole synthesis.
Regarding “(1S,7S,11R,13S,19S,22S,26S,29S,35S,37Z,47E)-7-[2-[3,5-difluoro-4-(trifluoromethyl)phenyl]ethyl]-11-ethoxy-19-(1-ethylpropyl)-3,3′,3′,18,21,25,31,34-octamethyl-29-[(1 S)-1-methylpropyl]-22-(pyrrolidine-1-carbonyl)spiro[3,6,9,15,18,21,25,28,31,34,41-undecazapentacyclo[24.15.10.2^43,46.1^35,41.0^9,13]tetrapentaconta-37,43(53),44,46(52),47-pentaene-16,1′-cyclobutane]-2,5,8,14,17,20,24,27,30,33,54-undecone”, the isolated yield stood at 16.4%. On the same count and under the same terms, the value for “PEPTIDE1{[MeAnone(2)-E].I.[MeGly].[MeAlgly_c].[ButenylPhe_c].[MeGly].[Hph(34-Cl2)].[Hyp(Et)].[cVal].[MeNva(3-Et)].[MeAsp2-pip]}$PEPTIDE1,PEPTIDE1,1:R1-11:R2|PEPTIDE1,PEPTIDE1,1:R3-5:R3|PEPTIDE1,PEPTIDE1,4:R3-5:R4$$$V2.0” was 20.9%; that for “PEPTIDE1{[MeAocte(2)-E].I.[MeGly].[MeAlgly_c].[ButenylPhe_c].[MeGly].[Hph(4-CF3-35-F2)].[Hyp(Et)].[cVal(3-Me2)].[MeNva(3-Et)].[MeAsp2-NMe2]}$PEPTIDE1,PEPTIDE1,1:R1-11:R2|PEPTIDE1,PEPTIDE1,1:R3-5:R3|PEPTIDE1,PEPTIDE1,4:R3-5:R4$$$V2.0” was 21.3%. The same measure, in the same setting: the value for “PEPTIDE1{[MeAnone(2)-E].I.[MeGly].[MeAlgly_c].[ButenylPhe_c].[MeGly].[Hph(34-Cl2)].[Hyp(Et)].[cVal].[MeGly(cPent)].[MeAsp2-pyrro]}$PEPTIDE1,PEPTIDE1,1:R1-11:R2|PEPTIDE1,PEPTIDE1,1:R3-5:R3|PEPTIDE1,PEPTIDE1,4:R3-5:R4$$$V2.0” was 19.9%; that for “PEPTIDE1{[MeAhpe(2)-E].I.[MeGly].[MeAlgly_c].[ButenylPhe_c].[MeGly].[Hph(4-CF3-35-F2)].[Hyp(Et)].[cVal(3-Me2)].[MeNva(3-Et)].[MeAsp2-pip]}$PEPTIDE1,PEPTIDE1,1:R1-11:R2|PEPTIDE1,PEPTIDE1,1:R3-5:R3|PEPTIDE1,PEPTIDE1,4:R3-5:R4$$$V2.0” was 31.1%.
